From the supplement of paper PMC12823440, “Inhibitors supercharge kinase turnover through native proteolytic circuits” (Nature, 2025)
The list shows a part of the results. The calls rarely recur for the same compound in another form.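 In K562 cells expressing nanoluciferase-fused kinases, luminescence was recorded at 4 h intervals between 2 and 18 h, normalized as percent of control with DMSO at 100% and a positive control at 0%. A significant (2 sigma) signal drop marks a time point as decreased. The authors' rule for a hit is not shown and takes in more than the number of time points.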

Protein sequences, listed by entry. Tags and fused reporters are not part of them. Lines headed by an entry give the natural chain unless they say otherwise; changes in a name come on top.
UniProt P48729: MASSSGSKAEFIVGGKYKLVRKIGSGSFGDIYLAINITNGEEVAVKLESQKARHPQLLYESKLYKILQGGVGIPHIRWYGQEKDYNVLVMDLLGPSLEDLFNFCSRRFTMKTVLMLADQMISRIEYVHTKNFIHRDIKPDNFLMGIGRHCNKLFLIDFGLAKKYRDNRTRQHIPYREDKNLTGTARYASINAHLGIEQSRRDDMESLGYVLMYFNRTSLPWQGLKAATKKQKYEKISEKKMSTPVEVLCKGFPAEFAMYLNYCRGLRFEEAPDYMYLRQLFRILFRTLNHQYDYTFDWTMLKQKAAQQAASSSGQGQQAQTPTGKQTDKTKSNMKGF
UniProt P53671: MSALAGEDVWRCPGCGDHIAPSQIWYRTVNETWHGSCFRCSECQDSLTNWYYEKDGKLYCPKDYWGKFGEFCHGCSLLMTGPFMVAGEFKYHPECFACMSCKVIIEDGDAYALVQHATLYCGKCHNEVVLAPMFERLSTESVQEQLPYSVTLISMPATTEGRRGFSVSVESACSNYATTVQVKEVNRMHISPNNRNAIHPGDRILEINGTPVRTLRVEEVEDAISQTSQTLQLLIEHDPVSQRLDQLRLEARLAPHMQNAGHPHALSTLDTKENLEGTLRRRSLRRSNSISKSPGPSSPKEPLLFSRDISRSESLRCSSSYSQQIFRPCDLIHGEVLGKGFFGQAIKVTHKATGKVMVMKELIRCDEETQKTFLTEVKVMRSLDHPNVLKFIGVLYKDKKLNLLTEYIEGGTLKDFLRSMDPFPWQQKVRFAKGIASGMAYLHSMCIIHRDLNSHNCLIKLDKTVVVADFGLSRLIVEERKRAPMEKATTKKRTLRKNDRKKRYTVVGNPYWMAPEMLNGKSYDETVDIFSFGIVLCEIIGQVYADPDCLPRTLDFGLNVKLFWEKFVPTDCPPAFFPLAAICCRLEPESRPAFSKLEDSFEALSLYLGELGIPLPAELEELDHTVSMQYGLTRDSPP
UniProt Q14289, whole entry, looked up: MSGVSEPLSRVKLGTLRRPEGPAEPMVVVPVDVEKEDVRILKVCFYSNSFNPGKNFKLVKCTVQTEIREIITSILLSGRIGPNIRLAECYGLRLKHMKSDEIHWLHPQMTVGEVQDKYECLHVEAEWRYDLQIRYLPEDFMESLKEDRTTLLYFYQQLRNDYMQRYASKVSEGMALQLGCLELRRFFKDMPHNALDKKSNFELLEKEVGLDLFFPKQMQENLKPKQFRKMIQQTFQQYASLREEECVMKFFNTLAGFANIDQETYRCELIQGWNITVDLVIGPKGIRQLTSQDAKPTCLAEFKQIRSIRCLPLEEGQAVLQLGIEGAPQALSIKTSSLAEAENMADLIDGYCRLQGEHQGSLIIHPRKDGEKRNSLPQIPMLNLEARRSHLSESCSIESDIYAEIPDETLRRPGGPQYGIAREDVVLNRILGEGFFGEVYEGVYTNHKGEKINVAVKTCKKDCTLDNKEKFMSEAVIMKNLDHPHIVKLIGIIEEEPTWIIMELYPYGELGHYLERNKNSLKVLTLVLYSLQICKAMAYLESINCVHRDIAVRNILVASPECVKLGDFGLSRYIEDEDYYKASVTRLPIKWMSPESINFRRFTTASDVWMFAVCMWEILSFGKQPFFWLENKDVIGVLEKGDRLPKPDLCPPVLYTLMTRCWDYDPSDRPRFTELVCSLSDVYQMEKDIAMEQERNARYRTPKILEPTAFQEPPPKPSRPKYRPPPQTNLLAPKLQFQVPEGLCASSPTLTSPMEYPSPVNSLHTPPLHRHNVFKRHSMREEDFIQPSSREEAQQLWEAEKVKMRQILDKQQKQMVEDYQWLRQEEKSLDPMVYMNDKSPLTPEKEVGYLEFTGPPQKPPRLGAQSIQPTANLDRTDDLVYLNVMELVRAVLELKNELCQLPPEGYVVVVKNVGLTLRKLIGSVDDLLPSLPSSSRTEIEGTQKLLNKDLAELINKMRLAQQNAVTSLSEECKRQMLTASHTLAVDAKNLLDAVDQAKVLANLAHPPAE
UniProt Q16288, whole entry, looked up: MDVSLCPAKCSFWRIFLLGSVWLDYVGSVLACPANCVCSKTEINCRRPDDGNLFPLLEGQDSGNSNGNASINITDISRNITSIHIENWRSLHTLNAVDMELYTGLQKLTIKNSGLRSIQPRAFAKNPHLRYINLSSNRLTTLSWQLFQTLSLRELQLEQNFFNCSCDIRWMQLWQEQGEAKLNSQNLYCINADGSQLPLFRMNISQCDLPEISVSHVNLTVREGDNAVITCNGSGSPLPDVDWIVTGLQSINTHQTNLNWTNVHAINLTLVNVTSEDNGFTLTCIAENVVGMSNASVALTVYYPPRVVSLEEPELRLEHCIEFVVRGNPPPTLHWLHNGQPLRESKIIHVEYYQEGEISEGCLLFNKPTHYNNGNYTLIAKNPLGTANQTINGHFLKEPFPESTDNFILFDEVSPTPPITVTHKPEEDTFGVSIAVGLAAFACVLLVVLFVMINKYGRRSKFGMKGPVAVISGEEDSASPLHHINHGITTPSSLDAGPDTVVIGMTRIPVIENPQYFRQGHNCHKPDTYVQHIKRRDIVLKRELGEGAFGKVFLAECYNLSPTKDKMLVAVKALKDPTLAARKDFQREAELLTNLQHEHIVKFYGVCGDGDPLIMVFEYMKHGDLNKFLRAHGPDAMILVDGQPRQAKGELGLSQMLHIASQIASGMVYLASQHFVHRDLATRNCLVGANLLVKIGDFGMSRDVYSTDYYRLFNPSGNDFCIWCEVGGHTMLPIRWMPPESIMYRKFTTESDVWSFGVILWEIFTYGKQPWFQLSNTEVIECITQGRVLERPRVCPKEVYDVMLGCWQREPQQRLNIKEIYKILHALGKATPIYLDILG
UniProt P28482, whole entry: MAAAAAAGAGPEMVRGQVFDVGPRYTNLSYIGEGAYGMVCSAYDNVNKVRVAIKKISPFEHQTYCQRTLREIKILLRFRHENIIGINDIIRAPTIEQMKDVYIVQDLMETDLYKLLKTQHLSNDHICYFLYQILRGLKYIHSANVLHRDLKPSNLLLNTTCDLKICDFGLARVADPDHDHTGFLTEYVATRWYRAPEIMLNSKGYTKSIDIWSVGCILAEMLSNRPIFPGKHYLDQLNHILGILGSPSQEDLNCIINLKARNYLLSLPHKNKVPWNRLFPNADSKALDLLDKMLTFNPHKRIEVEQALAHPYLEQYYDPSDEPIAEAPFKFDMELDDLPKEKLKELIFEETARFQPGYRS
UniProt P48730: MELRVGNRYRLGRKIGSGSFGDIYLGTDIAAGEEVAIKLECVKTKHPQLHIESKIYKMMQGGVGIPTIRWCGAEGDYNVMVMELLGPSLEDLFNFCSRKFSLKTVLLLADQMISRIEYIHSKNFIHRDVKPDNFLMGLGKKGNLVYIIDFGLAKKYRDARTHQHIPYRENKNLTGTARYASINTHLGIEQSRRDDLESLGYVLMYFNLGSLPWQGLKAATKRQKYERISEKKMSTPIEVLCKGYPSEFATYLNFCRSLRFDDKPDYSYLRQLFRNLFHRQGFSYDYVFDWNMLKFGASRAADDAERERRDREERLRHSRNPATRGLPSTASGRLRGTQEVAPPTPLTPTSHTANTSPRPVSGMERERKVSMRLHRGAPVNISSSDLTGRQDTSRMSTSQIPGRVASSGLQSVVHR
UniProt Q15208: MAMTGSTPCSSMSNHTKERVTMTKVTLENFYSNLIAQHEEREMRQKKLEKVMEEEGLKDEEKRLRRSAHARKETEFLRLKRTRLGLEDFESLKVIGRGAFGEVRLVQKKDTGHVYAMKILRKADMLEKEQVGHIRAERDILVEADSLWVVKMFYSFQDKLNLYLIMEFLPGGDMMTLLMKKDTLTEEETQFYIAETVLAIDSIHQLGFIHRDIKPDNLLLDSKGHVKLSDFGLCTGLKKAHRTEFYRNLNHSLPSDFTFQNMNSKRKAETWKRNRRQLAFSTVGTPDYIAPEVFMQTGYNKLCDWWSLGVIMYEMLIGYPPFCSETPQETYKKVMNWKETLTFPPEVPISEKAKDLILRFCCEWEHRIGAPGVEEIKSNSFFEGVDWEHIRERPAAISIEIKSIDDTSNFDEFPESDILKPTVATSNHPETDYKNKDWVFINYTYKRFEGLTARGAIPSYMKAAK
UniProt Q00534, whole entry: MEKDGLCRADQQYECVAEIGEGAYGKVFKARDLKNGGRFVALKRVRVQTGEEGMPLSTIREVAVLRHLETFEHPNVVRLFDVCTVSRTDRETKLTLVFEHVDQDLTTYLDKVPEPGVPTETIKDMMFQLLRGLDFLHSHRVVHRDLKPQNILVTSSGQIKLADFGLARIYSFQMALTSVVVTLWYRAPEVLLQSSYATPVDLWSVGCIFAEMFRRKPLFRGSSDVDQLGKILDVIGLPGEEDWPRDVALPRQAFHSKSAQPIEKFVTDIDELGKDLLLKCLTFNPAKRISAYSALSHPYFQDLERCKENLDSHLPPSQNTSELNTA
UniProt P29597: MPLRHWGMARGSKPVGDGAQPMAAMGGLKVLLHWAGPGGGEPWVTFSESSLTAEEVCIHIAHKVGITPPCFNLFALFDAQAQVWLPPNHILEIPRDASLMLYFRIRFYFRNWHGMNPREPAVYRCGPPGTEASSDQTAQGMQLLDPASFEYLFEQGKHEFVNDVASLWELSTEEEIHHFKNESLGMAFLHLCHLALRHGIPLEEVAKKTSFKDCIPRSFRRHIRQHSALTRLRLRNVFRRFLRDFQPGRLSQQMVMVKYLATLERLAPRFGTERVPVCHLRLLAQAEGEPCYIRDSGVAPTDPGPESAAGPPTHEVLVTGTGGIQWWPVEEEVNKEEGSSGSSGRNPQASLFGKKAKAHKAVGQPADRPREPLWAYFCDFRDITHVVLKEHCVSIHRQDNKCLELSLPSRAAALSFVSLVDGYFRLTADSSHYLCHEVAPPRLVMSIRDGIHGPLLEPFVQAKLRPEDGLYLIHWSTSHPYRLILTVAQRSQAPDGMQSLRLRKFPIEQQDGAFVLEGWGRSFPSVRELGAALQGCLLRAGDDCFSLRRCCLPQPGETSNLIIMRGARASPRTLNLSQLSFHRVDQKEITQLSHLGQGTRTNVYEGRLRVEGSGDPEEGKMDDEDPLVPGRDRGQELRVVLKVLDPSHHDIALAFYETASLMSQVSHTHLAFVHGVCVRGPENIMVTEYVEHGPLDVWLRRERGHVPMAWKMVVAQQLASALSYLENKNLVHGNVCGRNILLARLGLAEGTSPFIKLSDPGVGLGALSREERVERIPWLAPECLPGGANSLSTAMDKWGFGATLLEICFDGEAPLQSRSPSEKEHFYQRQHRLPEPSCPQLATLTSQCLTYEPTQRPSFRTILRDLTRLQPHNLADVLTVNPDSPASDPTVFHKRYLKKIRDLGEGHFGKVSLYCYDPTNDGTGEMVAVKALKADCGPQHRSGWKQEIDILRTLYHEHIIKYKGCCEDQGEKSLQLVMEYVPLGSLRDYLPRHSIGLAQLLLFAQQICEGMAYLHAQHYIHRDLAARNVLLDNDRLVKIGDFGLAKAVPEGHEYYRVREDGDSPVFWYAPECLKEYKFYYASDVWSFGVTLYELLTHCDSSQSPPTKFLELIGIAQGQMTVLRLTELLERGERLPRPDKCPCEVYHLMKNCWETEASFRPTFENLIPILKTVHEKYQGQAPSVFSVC
UniProt Q15131: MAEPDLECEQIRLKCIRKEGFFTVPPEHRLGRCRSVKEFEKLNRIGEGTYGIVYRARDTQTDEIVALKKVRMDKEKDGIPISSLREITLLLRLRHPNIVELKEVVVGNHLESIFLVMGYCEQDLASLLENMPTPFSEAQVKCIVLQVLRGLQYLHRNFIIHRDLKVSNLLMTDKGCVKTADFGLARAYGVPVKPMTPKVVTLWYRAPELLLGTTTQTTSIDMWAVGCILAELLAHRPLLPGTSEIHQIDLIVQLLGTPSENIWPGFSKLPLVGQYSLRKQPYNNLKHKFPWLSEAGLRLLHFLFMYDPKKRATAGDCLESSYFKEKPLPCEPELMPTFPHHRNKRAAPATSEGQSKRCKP
UniProt O96013: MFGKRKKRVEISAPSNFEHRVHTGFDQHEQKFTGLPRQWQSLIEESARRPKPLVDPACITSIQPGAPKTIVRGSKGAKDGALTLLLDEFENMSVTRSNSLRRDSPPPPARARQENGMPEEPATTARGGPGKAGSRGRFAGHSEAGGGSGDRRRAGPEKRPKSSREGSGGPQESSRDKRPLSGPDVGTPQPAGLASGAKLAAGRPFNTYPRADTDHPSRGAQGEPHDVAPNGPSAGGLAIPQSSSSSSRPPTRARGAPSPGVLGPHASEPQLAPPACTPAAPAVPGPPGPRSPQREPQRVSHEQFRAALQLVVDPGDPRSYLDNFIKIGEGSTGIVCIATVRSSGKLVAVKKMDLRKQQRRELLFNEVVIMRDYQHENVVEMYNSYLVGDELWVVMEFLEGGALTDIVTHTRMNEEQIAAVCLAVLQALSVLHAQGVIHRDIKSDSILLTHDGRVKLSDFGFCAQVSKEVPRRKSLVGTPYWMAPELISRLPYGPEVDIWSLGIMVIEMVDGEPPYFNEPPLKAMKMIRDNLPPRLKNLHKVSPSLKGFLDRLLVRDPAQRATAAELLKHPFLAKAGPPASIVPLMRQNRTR

compound: C=CC(=O)N1CCN(c2ncnc3c(F)c(-c4c(O)cccc4F)c(Cl)cc23)CC1; test: number of time points (of 5) at which kinase-Nluc abundance scored as decreased, DMSO-normalised (count); higher = more persistent destabilization; settings: 10 µM; K562; 2-18 h

Target | number of time points
PTK2 (UniProt Q05397) | 0
RAF1_S257L (clone: RAF1_mut) (UniProt P04049) | 0
CSNK1A1 (UniProt P48729) | 0
LIMK2 (UniProt P53671) | 0
PIK4CB (UniProt Q9UBF8) | 0
HER2 (UniProt P04626) | 0
PTK2B (UniProt Q14289) | 0
AKT1 (UniProt P31749) | 0
NTRK3 (UniProt Q16288) | 0
MAPK1 (UniProt P28482) | 0
RIPK2 (UniProt O43353) | 0
AURKB (UniProt Q96GD4) | 0
ERN1 (UniProt O75460) | 0
CSNK1D (UniProt P48730) | 0
ROR2 (UniProt Q01974) | 0
FGFR1 (UniProt P11362) | 0

Target | number of time points
STK38 (UniProt Q15208) | 0
CDK6 (UniProt Q00534) | 0
SYK (UniProt P43405) | 0
PDGFRB (UniProt P09619) | 0
MAP2K1 (UniProt Q02750) | 0
TYK2 (UniProt P29597) | 0
RIOK1 (UniProt Q9BRS2) | 0
SPHK1 (UniProt Q9NYA1) | 0
MAPK4 (UniProt P31152) | 0
CDK10 (UniProt Q15131) | 0
MAP2K2 (UniProt P36507) | 0
LIMK1 (UniProt P53667) | 0
PDPK1 (UniProt O15530) | 0
PAK4 (UniProt O96013) | 0
BMX (UniProt P51813) | 0

compound: C=CC(=O)Nc1cc(Nc2ncc(C(=O)OC(C)C)c(-c3cn(C)c4ccccc34)n2)c(OC)cc1N(C)CCN(C)C [Mobocertinib (succinate)]; test: as above; settings: 10 µM; K562; 2-18 h

Target | number of time points
PTK2 (UniProt Q05397) | 0
RAF1_S257L (clone: RAF1_mut) (UniProt P04049) | 0
CSNK1A1 (UniProt P48729) | 0
LIMK2 (UniProt P53671) | 0
PIK4CB (UniProt Q9UBF8) | 0
HER2 (UniProt P04626) | 3
PTK2B (UniProt Q14289) | 0
AKT1 (UniProt P31749) | 0
NTRK3 (UniProt Q16288) | 0
MAPK1 (UniProt P28482) | 0
RIPK2 (UniProt O43353) | 0
AURKB (UniProt Q96GD4) | 0
ERN1 (UniProt O75460) | 0
CSNK1D (UniProt P48730) | 0
ROR2 (UniProt Q01974) | 0
FGFR1 (UniProt P11362) | 0

Target | number of time points
STK38 (UniProt Q15208) | 0
CDK6 (UniProt Q00534) | 0
SYK (UniProt P43405) | 0
PDGFRB (UniProt P09619) | 0
MAP2K1 (UniProt Q02750) | 0
TYK2 (UniProt P29597) | 0
RIOK1 (UniProt Q9BRS2) | 0
SPHK1 (UniProt Q9NYA1) | 0
MAPK4 (UniProt P31152) | 0
CDK10 (UniProt Q15131) | 0
MAP2K2 (UniProt P36507) | 0
LIMK1 (UniProt P53667) | 0
PDPK1 (UniProt O15530) | 0
PAK4 (UniProt O96013) | 0
BMX (UniProt P51813) | 1
